Laboratory results as given in PMC12591160, “Polyadenylation Complex CFII Recognizes Downstream Cis‐element for Pre‐mRNA Polyadenylation Through Interaction with an RNA‐Binding Protein in Arabidopsis”.
Results are given in words; binding and its absence hold for the method and conditions named. Binding seen in cells or lysates may run through a third protein. Some results given as binding are weak or reduced against the parent protein; the word gives no strength. Where a sequence is shown, tags or fusion partners need not be part of it.

T1: PCFS4 (endogenous, Arabidopsis plants) (Arabidopsis thaliana (endogenous in Arabidopsis plants)) (UniProt Q0WPF2)
T1 sequence: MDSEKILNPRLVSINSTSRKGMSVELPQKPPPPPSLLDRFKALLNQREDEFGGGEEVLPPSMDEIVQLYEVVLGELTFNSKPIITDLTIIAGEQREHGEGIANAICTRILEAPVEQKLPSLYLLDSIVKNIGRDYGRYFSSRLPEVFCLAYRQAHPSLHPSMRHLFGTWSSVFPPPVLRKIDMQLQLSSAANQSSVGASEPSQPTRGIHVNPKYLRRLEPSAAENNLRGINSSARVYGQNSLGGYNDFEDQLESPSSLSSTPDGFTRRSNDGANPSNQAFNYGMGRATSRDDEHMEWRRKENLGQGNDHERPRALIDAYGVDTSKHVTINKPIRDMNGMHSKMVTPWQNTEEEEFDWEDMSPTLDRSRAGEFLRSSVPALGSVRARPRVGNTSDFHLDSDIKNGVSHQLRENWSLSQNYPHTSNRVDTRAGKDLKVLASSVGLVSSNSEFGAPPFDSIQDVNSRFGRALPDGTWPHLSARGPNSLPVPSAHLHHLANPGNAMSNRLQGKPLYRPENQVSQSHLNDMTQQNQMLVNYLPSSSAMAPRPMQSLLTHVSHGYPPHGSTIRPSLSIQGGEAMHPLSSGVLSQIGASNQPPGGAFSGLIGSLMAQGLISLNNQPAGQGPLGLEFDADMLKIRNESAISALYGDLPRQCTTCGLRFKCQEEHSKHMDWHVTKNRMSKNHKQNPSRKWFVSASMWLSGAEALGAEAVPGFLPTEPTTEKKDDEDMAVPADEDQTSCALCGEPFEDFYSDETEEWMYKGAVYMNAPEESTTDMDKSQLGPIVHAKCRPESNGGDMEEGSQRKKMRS

T2: FPA with a FLAG tag (Arabidopsis protoplasts) (Arabidopsis thaliana), Q8LPQ9
T2 chain: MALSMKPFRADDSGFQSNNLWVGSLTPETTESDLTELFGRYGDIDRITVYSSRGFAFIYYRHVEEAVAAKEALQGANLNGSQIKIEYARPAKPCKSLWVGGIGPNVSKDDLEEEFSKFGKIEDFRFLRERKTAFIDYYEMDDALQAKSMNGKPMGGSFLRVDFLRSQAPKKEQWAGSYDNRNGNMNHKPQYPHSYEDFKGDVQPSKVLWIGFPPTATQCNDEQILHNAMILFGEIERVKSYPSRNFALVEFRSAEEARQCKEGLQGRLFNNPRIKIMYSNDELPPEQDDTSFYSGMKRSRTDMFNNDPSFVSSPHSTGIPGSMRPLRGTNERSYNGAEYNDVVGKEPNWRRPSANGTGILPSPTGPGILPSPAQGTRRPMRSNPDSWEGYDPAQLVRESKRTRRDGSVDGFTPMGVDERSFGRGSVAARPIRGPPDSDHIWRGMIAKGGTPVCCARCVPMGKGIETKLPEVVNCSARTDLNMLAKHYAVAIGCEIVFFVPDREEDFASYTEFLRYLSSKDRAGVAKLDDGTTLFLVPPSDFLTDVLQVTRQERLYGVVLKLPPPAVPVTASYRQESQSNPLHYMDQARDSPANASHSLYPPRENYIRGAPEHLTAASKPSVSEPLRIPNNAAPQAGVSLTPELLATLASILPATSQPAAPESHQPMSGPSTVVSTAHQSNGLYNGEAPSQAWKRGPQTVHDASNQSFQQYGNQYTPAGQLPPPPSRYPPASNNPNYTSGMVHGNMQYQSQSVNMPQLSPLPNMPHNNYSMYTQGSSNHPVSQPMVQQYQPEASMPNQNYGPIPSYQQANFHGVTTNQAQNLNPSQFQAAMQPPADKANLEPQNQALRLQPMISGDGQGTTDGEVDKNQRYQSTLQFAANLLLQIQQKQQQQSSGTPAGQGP


How the values were obtained:
[1] = target: T1, PCFS4 (endogenous, Arabidopsis plants) (Arabidopsis thaliana (endogenous in Arabidopsis plants)); experiment: co-IP; total protein extracts of 12-day-old transgenic Arabidopsis plants (PCFS4-MYC or CLPS3-FLAG; wild type as control) on anti-MYC or anti-FLAG M2 magnetic beads, 2 h at 4 °C, 150 mM NaCl, 0.1% Triton X-100, pH 7.4; blots with the indicated antibodies
[2] = target: T2, FPA with a FLAG tag (Arabidopsis …); experiment: co-IP; Arabidopsis protoplasts co-transformed with FLAG-tagged FPA and a MYC-tagged protein; lysate (150 mM NaCl, 0.2% Triton X-100, pH 7.4) on anti-FLAG M2 magnetic beads, 2 h at 4 °C; blots with anti-FLAG and anti-MYC; details: remark: other sources report otherwise

binding [1] | binding [2] | Binder
binds | – | CLPS3-FLAG (CLPS3 with 3× FLAG, native promoter, in CLPS3-FLAGres transgenic plants) (protein, UniProt Q9SR06 1-444) MAYGGPSMNPPALSGAVPGSANLKQVKLERESELRIEVSEEPLRLRVVNGTAEIFGSELPPEIWRTFPPRMKFAVFTWYGATIEMDGVTETDYTADETPMVSYINVHAILDARRRFAKASTSNDPESSQGPRVIVVGPTDSGKSTLTKMLLSWAAKQGWRPTFVDLDVGQGSITIPGSIAAAPIEMPLDPVEGFPLDMALVYYYGHASPNMNVELYKALVKELAQVLEKQFVGNPESRAAGMVINTMGWIEGIGYELLLHAIDTFNASVVLVLGQEKLFSRLKDVLRSKSNVDVVKLHKSGGVVARVKEVRKRSRNFKIQEYFYGLSKELSPYANTSSFSDLQVFRIGGGPQAPKSALPAGSTSVSNPLRVTPVNIDDRDLLHSVLAVSYAEEPDQIISSNVSGFVYVTEVNVQKKKITYLAPSPGTLPSKLLVAGSLAWLESV
– | no binding | CstF64 with MYC tag (Arabidopsis protoplasts), Q9M9G6 1-461 (protein) MASSSSQRRCVFVGNIPYDATEEQLREICGEVGPVVSFRLVTDRETGKPKGYGFCEYKDEETALSARRNLQSYEINGRQLRVDFAENDKGTDKTRDQSQGGPGLPSTTTVTESQKQIGGPVDSNMHQPVGLHLATTAASVIAGALGGPQVGSQFTQSNLQVPASDPLALHLAKMSRSQLTEIISSIKLMATQNKEHARQLLVSRPQLLKAVFLAQVMLGIVSPQVLQSPNIVQAPSHMTGSSIQDAQLSGQNLLPPLAQRSQQLSRAPHSQYPVQQSSKQPFSQIPQLVAQPGPSSVNPPPRSQVKVENAPFQRQQVVPASTNIGYSSQNSVPNNAIQPSQVPHQALPNSVMQQGGQTVSLNFGKRINEGPPHQSMNRPSKMMKVEDRRTTSLPGGHVSNSMLPNQAQAPQTHISPDVQSTLLQQVMNLTPEQLRLLTPEQQQEVLKLQQALKQDHMMQPS
